In article PMC7226164:
No constants are given. Whether binding was seen depends on the method and setting. Binding seen in cells or lysates may run through a third protein. A result given as binding can be weak or reduced; the word gives no strength. Where a sequence is shown, tags or fusion partners need not be part of it.

Target: IbWRKY2 fused to the N-terminal region of YFP (pSPYNE-IbWRKY2-nYFP) (sweetpotato (Ipomoea batatas))
Test: split reporter; BiFC: nYFP and cYFP fusions (pSPYNE, pSPYCE) in N. benthamiana leaves injected with A. tumefaciens; confocal microscopy 24-48 h after injection

binding: binds
B1: AtVQ4 fused to the C-terminal region of YFP (pSPYCE, AtVQ4-cYFP) (protein, UniProt Q5M750 1-247)
chain: MENSPRYREATNLIPSPRCHNSNNSCGMSSSSESNKPPTTPTRHVTTRSESGNPYPTTFVQADTSSFKQVVQMLTGSAERPKHGSSLKPNPTHHQPDPRSTPSSFSIPPIKAVPNKKQSSSSASGFRLYERRNSMKNLKINPLNPVFNPVNSAFSPRKPEILSPSILDFPSLVLSPVTPLIPDPFDRSGSSNQSPNELAAEEKAMKERGFYLHPSPATTPMDPEPRLLPLFPVTSPRVSGSSSASTS
